Reference: PubChem BioAssay AID1159578 (Peter MacCallum Cancer Centre, 2015)
The whole screen tested about 18,000 reagents; shown is a part drawn at random. Over the whole deposit, about 1,030 (5.7%) are marked active. 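Inactive calls also include pools with fewer than 3300 nuclei, whose migration was not assessed.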 Raw values are not corrected between plates. Entries without a mark were called inactive. Not all columns of the deposit are shown.

Aim: 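siRNA pools altering how lymphatic endothelial cells close a scratch wound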 (primary screen)
System: human lymphatic endothelial cells
Reagent: siRNA pool against human genes, 40 nM
Duration: 48 h after transfection
Read-out: 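High-content imaging of dye-stained cells in a scratch assay measures filled wound area and nuclei per well; duplicate means given as ratio to mock and robust z-score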
Reading the numbers: migration robust z-score: higher = faster migration into the scratch; nuclei per well: higher = more cells in the well
Active means: 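Migration changed when robust z exceeds 2 or falls below -2 and mean nuclei number is at least 3300; otherwise not called changed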
Meaning of the calls: active = migration changed; inactive = no migration change, or too few cells

| gene | migration robust z-score | migration class with cell-count check | nuclei per well, duplicate mean |
| --- | --- | --- | --- |
| TSPYL2 | 0.11 | migration z between -2 and 2; enough cells | 5946 |
| ZNF660 | 0.12 | migration z between -2 and 2; enough cells | 6266 |
| SLC19A3 | 0.8 | migration z between -2 and 2; enough cells | 8281 |
| RHOV | 0.39 | migration z between -2 and 2; enough cells | 5933 |
| CACNA1C | -1.97 | migration z between -2 and 2; enough cells | 4348 |
| LGR4 | 0.62 | migration z between -2 and 2; enough cells | 6247 |
| ADPRHL1 | -0.65 | migration z between -2 and 2; enough cells | 5694 |
| TCP11L1 | -2.3 (active) | migration z below -2; enough cells | 3506 |
| ZNF200 | 0.77 | migration z between -2 and 2; enough cells | 4246 |
| MTG2 | 0.77 | migration z between -2 and 2; enough cells | 4243 |
| CFAP95 | -3.71 | under 3300 nuclei; migration not judged | 1856 |
| ZNF624 | 1.39 | migration z between -2 and 2; enough cells | 6290 |
| SULT1A3 | 0.57 | migration z between -2 and 2; enough cells | 7705 |
| CIRBP | -1.38 | migration z between -2 and 2; enough cells | 5003 |
| CRTAM | 0.86 | migration z between -2 and 2; enough cells | 5857 |
| ZNF93 | -0.14 | migration z between -2 and 2; enough cells | 5610 |
| VIL1 | -0.71 | migration z between -2 and 2; enough cells | 5638 |
| TTYH1 | -0.5 | migration z between -2 and 2; enough cells | 5278 |
| FBXL4 | 1.3 | migration z between -2 and 2; enough cells | 5724 |
| MRPL17 | -1.06 | migration z between -2 and 2; enough cells | 5946 |
| FOXRED2 | -0.5 | migration z between -2 and 2; enough cells | 6640 |
| SNX29P1 | 0.48 | migration z between -2 and 2; enough cells | 6173 |
| CDC25A | 1.06 | migration z between -2 and 2; enough cells | 5012 |
| ENPP3 | -1.09 | migration z between -2 and 2; enough cells | 6203 |
| GTF3C1 | -1.4 | migration z between -2 and 2; enough cells | 5504 |
| SDC3 | 1.36 | migration z between -2 and 2; enough cells | 6272 |
| LYN | -1.66 | migration z between -2 and 2; enough cells | 3790 |
| RIC8A | 1.86 | migration z between -2 and 2; enough cells | 5830 |
| ZNG1A | -0.4 | migration z between -2 and 2; enough cells | 4275 |
| FAM81B | -0.48 | migration z between -2 and 2; enough cells | 6416 |
| KRT9 | -0.44 | migration z between -2 and 2; enough cells | 5090 |
| DYNLL2 | 1.19 | migration z between -2 and 2; enough cells | 5324 |
| MIB2 | 1.66 | migration z between -2 and 2; enough cells | 5508 |
| PPP2R3A | -0.5 | migration z between -2 and 2; enough cells | 5090 |
| EID2B | -0.78 | migration z between -2 and 2; enough cells | 6736 |
| CD63 | 0.48 | migration z between -2 and 2; enough cells | 5960 |
| XAGE2 | -0.55 | migration z between -2 and 2; enough cells | 6653 |
| MYL12B | -0.35 | migration z between -2 and 2; enough cells | 5809 |
| ARPC3 | -0.55 | migration z between -2 and 2; enough cells | 6067 |

Targets listed so far whose gene name starts with C or c:
| gene | migration robust z-score | migration class with cell-count check | nuclei per well, duplicate mean |
| --- | --- | --- | --- |
| CACNA1C | -1.97 | migration z between -2 and 2; enough cells | 4348 |
| CFAP95 | -3.71 | under 3300 nuclei; migration not judged | 1856 |
| CIRBP | -1.38 | migration z between -2 and 2; enough cells | 5003 |
| CRTAM | 0.86 | migration z between -2 and 2; enough cells | 5857 |
| CDC25A | 1.06 | migration z between -2 and 2; enough cells | 5012 |
| CD63 | 0.48 | migration z between -2 and 2; enough cells | 5960 |
